PubChem BioAssay AID1347423 (Functional Genomics Laboratory (NCATS/FGL), 2020)
The campaign covered roughly 52,000 sequences. About 210 (0.4%) were called active.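 How the source made its calls: active means gene whose silencing raises cell survival under the drug, median off-target-corrected z-score across its silencing RNAs 2 or more; inactive means the rest.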 Some of the results follow.

Assay: Resistance to Poly (ADP-Ribose) Polymerase inhibitor: Gene Identification via Genome-wide siRNA Screen
Settings: mouse BRCA2 R2336H ES cells, olaparib, CellTiter-Glo viability; hits give high values
Outline: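 Genome-wide siRNA screen (3 siRNAs/gene, 20 nM) in mouse ES cells carrying hypomorphic BRCA2 R2336H; olaparib 500 nM added 48 h post-transfection, CellTiter-Glo viability 72 h later. Normalized to plate-median negative control; MAD z-scores, gene median, seed-adjusted.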
For “CCCAAAUAAAGUUCACUGGTT against 4930566A11Rik”, the z-score was inactive: 0.356.
In the case of GGUUUGUGACAUUAUCUGCTT against Wrnip1, the z-score was inactive: 0.43.
For GCGUGACGAGCUAACAGAATT against Stac2, the z-score was inactive: -0.767.
For GGAGUUUCAGAGCAAGCAGTT against Atp6v1g2, the z-score was inactive: -0.291.
In the case of GGACGAGGUAGCUUAUUGCTT against Pnn, the z-score was inactive: 0.546.
In the case of GGGUGUGAUGGUUCUCACCTT against Olfr777, the z-score was inactive: -0.411.
With GGGCAGCUACGUCAUUAAGTT against Prkg2 the z-score was inactive: 1.36.
In the case of GCCAUGGCAUAAAAACUGGTT against P2rxl1, the z-score was inactive: 0.917.
For GGACAAGUACCAGCAGCAGTT against Spry2, the z-score was inactive: 1.89.
For CCCUAGGCCUUUUUUCUGCTT against Olfr930, the z-score was inactive: -0.0862.
In the case of CGCUAGUUUGGACGGUUUUTT against Odf3, the z-score was inactive: -0.182.
With GGAAGGUAAUUGCUUUUAGTT against Gmeb1 the z-score was inactive: -1.2.
With GCAGUCUGGUUCUCUCAAATT against Cryl1 the z-score was inactive: 2.21.
For CCUGCUAGUGGAGAACAUCTT against Rnf30, the z-score was inactive: -2.54.
For “GCAAGUGUCUUGUCCCAGGTT against D7Ertd680e”, the z-score was inactive: 0.19.
With AAGACCUUCCACAUGUUAATT against LOC434197 the z-score was inactive: 0.159.
In the case of GGAAUUCAAGGGCUCCACATT against Grip1, the z-score was inactive: 0.637.
With GGAUAUCAAUAGCCUCAACTT against Stx5a the z-score was inactive: -1.38.
With GCAGGAUACAUUAAUUGUUTT against AW011752 the z-score was inactive: -0.146.
In the case of GGCAAAACCUACAUGGCCCTT against Drd1a, the z-score was inactive: 0.35.
In the case of CCUCAAACUCGGUUUGAUUTT against Acp6, the z-score was inactive: -1.08.
For GGCCGAUUGUUGGACAUUCTT against Card11, the z-score was inactive: -0.061.
In the case of “GGAAACAUCUUGUUGAAGATT against B630019A10Rik”, the z-score was inactive: -0.374.
In the case of CCUAAACAUCACUUGCUCUTT against Cd200, the z-score was inactive: -1.11.
For CGCAUGUGAUUCCUUAUGATT against Sqrdl, the z-score was inactive: -0.298.
For CGGAUUUAAGCAGAGUGGATT against Fgl1, the z-score was inactive: 2.1.
For GGAAAAUUGAUAGCAAGCUTT against LOC382105, the z-score was inactive: 1.12.
For GGUAGUAUUCAGUGAAUACTT against Cks2, the z-score was inactive: -0.528.
For GGACCUGUCUUCAUUGGAGTT against Ngb, the z-score was inactive: 2.47.
In the case of GGUGUGUGAGAUAAUUGAGTT against Cops6, the z-score was inactive: -1.85.
With “GGCUCUUGUCACAUGAUCATT against 5830427H10Rik” the z-score was inactive: -0.783.
For CCUUUCAAGGAGAUAUAAUTT against Gcm2, the z-score was inactive: -1.1.
For CCACAGACUCUUAAUUAGATT against Ap3b1, the z-score was inactive: 0.44.
For GGAAAUGACCACAAUAUUUTT against Plaa, the z-score was inactive: -0.0931.
With GGACAACAAAGGGAGAUUCTT against Kctd12b the z-score was inactive: -0.941.
For GGCUCUUAAUACCACCUACTT against Egr1, the z-score was inactive: -0.507.
In the case of “GGACAUACAAAUCAGGUGGTT against 5830404H04Rik”, the z-score was inactive: 0.749.
For GCUUAAGUUCCUUCUUCUCTT against Tas2r144, the z-score was inactive: 0.266.
For CGUAGCACUUCUUCUCUUATT against Dnclic2, the z-score was inactive: 1.72.
For “GCCGUUUCACAGAGUACUCTT against 2610020N02Rik”, the z-score was inactive: -2.16.
In the case of CGACUUGAACUCUAUGGCGTT against Ascl1, the z-score was inactive: 0.883.
For CGAUUAUCAACUCAUAUGCTT against Eif5a2, the z-score was inactive: 0.218.
With ACGUAGGUUAACUGAACAUTT against Zfp187 the z-score was inactive: -1.06.
In the case of “CCCUAUGAUUCCGACAACCTT against 4831417L10”, the z-score was inactive: 0.824.
In the case of GGUAUGCAUGAACAUAAUGTT against Prlpo, the z-score was inactive: -0.21.
In the case of GGAUCAAAAGGUGAAUGCUTT against V1re10, the z-score was inactive: 1.61.
With GCAUUAGUCAUUGUUAACGTT against Hsd17b4 the z-score was inactive: 0.608.
With GGUGUAAAAAUGUGAAAGATT against Suv39h2 the z-score was inactive: 0.44.
With CGAGACUCUAUCUUUGUCCTT against Siat6 the z-score was inactive: -0.0696.
In the case of GCUACGAGAGGUCAUUUCCTT against Chrnb1, the z-score was active: 2.48.
For GGUUAAGGGCAAAAUUCUGTT against Rpl21, the z-score was inactive: -3.09.
In the case of “CCACUGCACUGUAAAUCAATT against 2900070E19Rik”, the z-score was inactive: 1.28.
With GGACUCUGAAUCAACUUGGTT against Stx7 the z-score was inactive: 0.388.
With CGACUACAAUGGGCUCAAGTT against Kifc3 the z-score was inactive: -1.3.
In the case of GGAGGUAGAAUGUUAUGUGTT against Gja9, the z-score was inactive: 0.747.
In the case of GGCAACACAAGUGAGAAUGTT against BC026432, the z-score was inactive: -0.267.
In the case of GGAAGCUUUUGUCGGUCCATT against Hap1, the z-score was inactive: -1.12.
With GGCCAAUGCACUCCUGAUCTT against Gna11 the z-score was inactive: -1.05.
With GGGUCUCCUCUCUAAUCUATT against Psp the z-score was inactive: -0.886.
In the case of GGAUUGAUAAUGAACUUCGTT against Slc13a5, the z-score was inactive: 2.17.
With “GGAAGAUGAUACAAGCAAATT against A930002I21Rik” the z-score was inactive: 0.425.
With GGUAGAGCAAGACCUUCCUTT against P4ha3 the z-score was inactive: -0.609.
With CCUAAAGUCUCUGAAUCAGTT against Fyb the z-score was inactive: 0.943.
In the case of GGAUUUGGCAACAGACUUUTT against Ryr2, the z-score was inactive: -0.339.
For CCCAGUUGCUAUGCUUGACTT against Defb37, the z-score was inactive: -0.505.
For GCCUGUAGACACAAAAUUUTT against Akp3, the z-score was inactive: 0.51.
For GGAGAUACUUCGAUACUUUTT against Baz1b, the z-score was inactive: -1.2.
